# Measured values taken from PubChem BioAssay AID504594 (Broad Institute, 2011).
# Among all 2,000 compounds or so, fewer than 10 were called active.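 Rule for the calls: active = growth inhibition of at least 75% in every replicate, which also brings the mean inhibition to 75% or more; inconclusive = mean inhibition 75% or more but some replicate under 75%; inactive = the rest.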 The list shows a part of the results.
# Experiment: reduced viability of yeast carrying PfHsp90 – S. cerevisiae, BacTiter-Glo luminescence, antimalarial PfHsp90 inhibitor project, primary screen (AID 504594);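 note: 0% = DMSO neutral control wells and 100% = 20 µM radicicol control wells; higher value means stronger growth inhibition because the sign is flipped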
# Conditions: S. cerevisiae expressing PfHsp90, BacTiter-Glo growth, 48 h; at 9.4 µM; stronger effect = higher value
row,SMILES,growth inhibition
1,NC(N)=NC(N)=NCCc1ccccc1,inactive: -6.18%
2,CC(NC(=O)c1cccnc1)C(=O)O (stereo not drawn),inactive: -10.5%
3,CC(C)OC(=O)CC1C(=O)NCCN1C(=S)NC(=O)c1cccs1 (stereo not drawn),inactive: 7.79%
4,CC(C)c1ccc2[nH]c3c(c2c1)CCCC3=O,inactive: 0.593%
5,COC(=O)c1cc(Br)c(=O)n(CCc2ccc(O)cc2)c1,inactive: 12.1%
6,Cc1ccc2c(c1)C(CCN)C(=O)N2Cc1ccccc1 (stereo not drawn),inactive: -2.1%
7,CCOC(=O)C1NN=C(C(=O)c2ccccc2)C1c1ccc(Cl)cc1 (stereo not drawn),inactive: 3.31%
8,Cc1cccc2c1CC(C)(C)N/C2=C\C(N)=O,inactive: 1.18%
9,CC(C[N+](C)(C)C)OC(N)=O (stereo not drawn),inactive: 1.14%
10,CN(C)CCN(Cc1ccc(Cl)cc1)c1ccccn1,inactive: 4.52%
11,O=C(c1cccc2ccccc12)C1CCCN(C(=O)CCN2CCCO2)C1 (stereo not drawn),inactive: 0.553%
12,Cc1onc(-c2c(Cl)cccc2Cl)c1C(=O)NC1C(=O)N2C1SC(C)(C)C2C(=O)O (stereo not drawn),inactive: -6.05%
13,CN(CCCN1CCOCC1)Cc1cn(C)nc1-c1ccccc1F,inactive: 7.21%
14,COC(=O)[C@@H](N)CS,inactive: -1.65%
15,Cc1cn([C@H]2C[C@H](N=[N+]=[N-])[C@@H](CO)O2)c(=O)[nH]c1=O,inactive: -6.73%
16,O=C(CS(=O)(=O)c1ccccc1)c1ccc2c(c1)OCCO2,inactive: -2.75%
17,COc1ccc([C@@H]2Sc3ccccc3N(CCN(C)C)C(=O)[C@@H]2OC(C)=O)cc1,inactive: -1.72%
18,Cc1ccc(C)c(OCCCC(C)(C)C(=O)O)c1,inactive: -1.57%
19,O=C(CCCN1CCC(O)(c2ccc(Cl)cc2)CC1)c1ccc(F)cc1,inactive: 2.51%
20,O=C(NC(=S)Nc1nc(-c2ccccc2)cs1)c1ccco1,inactive: 2.7%
21,C=C(C)COc1ccc(-c2n[nH]c(C)c2-c2ccc(OC)cc2)c(O)c1,inactive: -16.8%
22,COCCOC(=O)C1=C(C)NC(C)=C(C(=O)OC(C)C)C1c1cccc([N+](=O)[O-])c1 (stereo not drawn),inactive: 4.77%
23,CN1C(C(=O)Nc2ccccn2)=C(O)c2ccccc2S1(=O)=O,inactive: 2.41%
24,COc1ccc2c(c1)C(=O)CC(c1ccccc1F)O2 (stereo not drawn),inactive: -2.11%
25,CC1(C)CC(c2csc(N)n2)CCO1 (stereo not drawn),inactive: 3.01%

# Taken from above.
# `COC(=O)[C@@H](N)CS` – growth inhibition: inactive: -1.65%
# `CN(C)CCN(Cc1ccc(Cl)cc1)c1ccccn1` – growth inhibition: inactive: 4.52%
# `CN1C(C(=O)Nc2ccccn2)=C(O)c2ccccc2S1(=O)=O` – growth inhibition: inactive: 2.41%
# `CC(NC(=O)c1cccnc1)C(=O)O` (stereo not drawn) – growth inhibition: inactive: -10.5%
# `CC(C)c1ccc2[nH]c3c(c2c1)CCCC3=O` – growth inhibition: inactive: 0.593%
# `O=C(c1cccc2ccccc12)C1CCCN(C(=O)CCN2CCCO2)C1` (stereo not drawn) – growth inhibition: inactive: 0.553%

# (further entries)

row,SMILES,growth inhibition
1,Cc1ccc2c(ccc(=S)n2C)c1,inactive: 0.161%
2,O=C(O)CCCNc1ccc(S(=O)(=O)Nc2ccccc2C(=O)O)cc1C(=O)O,inactive: -1.88%
3,CC1(C)[C@@H](O)CC[C@]2(C)[C@H]3C(=O)C=C4[C@@H]5C[C@@](C)(C(=O)O)CC[C@]5(C)CC[C@@]4(C)[C@]3(C)CC[C@@H]12,inactive: 19.9%
4,COc1cc(C(=O)NCCc2c[nH]c3ccccc23)ccc1OCc1c(C)noc1C,inactive: -2.7%
5,CN(C)CCCNc1ncnc2c1cnn2-c1ccccc1,inactive: -5.01%
6,COc1cc(NC(=O)COc2ccccc2)c(OC)cc1NC(C)=O,inactive: 5.31%
7,CN1/C(=C\C=Nc2ccccc2)C(C)(C)c2ccccc21,inactive: 14%
8,COc1ccc2cc(C3(C)NC(=O)NC3=O)ccc2c1 (stereo not drawn),inactive: 1.64%
9,Clc1ccc2c(c1)[C@H]1OCC[C@H]1[C@@H](c1ccco1)N2,inactive: 1.42%
10,Cc1ccccc1OCCSc1nc2ncnc(N)c2[nH]1,inactive: -2.23%
11,COc1ccc2nc(S(=O)Cc3ncc(C)c(OC)c3C)[nH]c2c1 (stereo not drawn),inactive: -8.25%
12,O=CNC1CCCc2c1[nH]c1ccc(Cl)cc21 (stereo not drawn),inactive: -7.59%
13,CCCC(=O)O[C@]1(C(=O)CO)CC[C@H]2[C@@H]3CCC4=CC(=O)CC[C@]4(C)[C@H]3[C@@H](O)C[C@@]21C,inactive: -0.235%
14,O=c1cc(CN2CCN(c3cccc(Cl)c3)CC2)c2cc(O)c(-c3ccccc3)cc2o1,inactive: 5.17%
15,COc1ccc2oc(=O)c(-c3nc(C)cs3)cc2c1,inactive: -1.87%
16,COc1cc2c(cc1OC)C1(CCCCC1)CN(C)C2,inactive: -3.79%
17,O=c1[nH]c(=O)n([C@H]2C[C@H](O)[C@@H](CO)O2)cc1C(F)(F)F,inactive: 13.3%
18,CC(C)C(=O)Nc1ccc2c3c(cccc13)CC2,inactive: -6.87%
19,Cc1nnc(SCC2=C(C(=O)O)N3C(=O)[C@@H](NC(=O)Cn4cnnn4)[C@H]3SC2)s1,inactive: 0.906%
20,CCCCCCCCNC(C)C(O)c1ccc(SC(C)C)cc1 (stereo not drawn),inactive: 0.856%
21,CC(=O)CC(c1ccc([N+](=O)[O-])cc1)c1c(O)c2ccccc2oc1=O (stereo not drawn),inactive: -2.05%
22,c1ccc(SSc2ccccc2)cc1,inactive: -0.853%
23,COc1ccc2[nH]c(C)c(CN3CCC(C)CC3)c(=O)c2c1,inactive: -1%
24,Cc1ccccc1C(=O)NCC(=O)O,inactive: 2.47%
25,CC12COC3(C(=O)Nc4ccc(F)cc4)CC1CCC32C (stereo not drawn),inactive: -8.1%

row,SMILES,growth inhibition
1,COc1ccc2c(c1)C=CC1(O2)N(CCO)c2ccccc2C1(C)C (stereo not drawn),inactive: -0.327%
2,O=Cc1ccc(N2CCCCC2)cc1,inactive: -3.18%
3,C[C@]12CC[C@H]3[C@@H](CCC4=CC(=O)CC[C@@]43C)[C@@H]1CC[C@@H]2C(=O)CO,inactive: 2.84%
4,COc1cc(C=NCC2OCCc3ccccc32)cc(OC)c1 (stereo not drawn),inactive: -7.45%
5,COc1cc(NS(=O)(=O)c2ccc(N)cc2)nc(OC)n1,inactive: 12.1%
6,O=C(O)c1cc(-c2ccc3c(c2)OCO3)nc2ccc(Br)cc12,inactive: 0.979%
7,O=C(c1ccco1)N1CCCN(Cc2nc(-c3ccc4c(c3)OCO4)no2)CC1,inactive: 4.02%
8,CC(C)c1ccc(OCc2ccc(C(=O)O)o2)cc1,inactive: -8.18%
9,COc1ccc(C2=CC(=O)C=CC2=O)cc1,inactive: 4.33%
10,CCOC(=O)c1ccc(N2C(=O)C(CC(=O)NC)N(CCc3ccc(OC)c(OC)c3)C2=S)cc1 (stereo not drawn),inactive: 8.13%
11,CCOC(=O)c1ccc(NC(=S)NCCc2ccccc2F)cc1,inactive: -13%
12,NC(=O)N1c2ccccc2CC(=O)c2ccccc21,inactive: -9.53%
13,CC12CCC(C(=O)Nc3ccccc3Br)(C/C1=N\O)C2(C)C (stereo not drawn),inactive: -9.28%
14,CC12CCC(C(=O)N3CCc4ccccc43)(CC1=O)C2(C)C (stereo not drawn),inactive: -7.62%
15,Cc1nc(C)c(C)nc1C,inactive: 3.66%
16,CC(=O)N(C(C)=O)c1nc2nc(C)cc(C)n2n1,inactive: -7.83%
17,COc1cc2cc(C(=O)O)[nH]c2c(OC)c1OC,inactive: 0.163%
18,O=C(CC(C(=O)O)c1c[nH]c2ccccc12)c1ccccc1 (stereo not drawn),inactive: 7.06%
19,Cc1oc2cc(O)ccc2c(=O)c1Oc1ccccc1Br,inactive: -0.452%
20,CC(=O)NCCCCCCNC(C)=O,inactive: 8.45%
21,CC(C)Cc1ccc(C(C)C(=O)Nc2ccc(O)cc2)cc1 (stereo not drawn),inactive: -4.11%
22,CC(C)OC(=O)CC1C(=O)NCCN1C(=S)NC(=O)c1ccccc1Cl (stereo not drawn),inactive: -7.62%
23,C(=C/c1nccc2c1[nH]c1ccccc12)/c1ccc2c(c1)OCO2,inactive: 7.32%
24,OCC1CCN(Cc2cn(Cc3ccccc3)nc2-c2cc3ccccc3o2)CC1,inactive: -1.56%
25,CC1(C)Cc2ccccc2-c2n[nH]c(=S)n21,inactive: -11.6%

row,SMILES,growth inhibition
1,CC1CCCC(C)N1NC(=O)c1ccc(Cl)c(S(N)(=O)=O)c1 (stereo not drawn),inactive: 1.06%
2,Nc1nnc(-c2cccc(Cl)c2Cl)c(N)n1,inactive: -27.1%
3,COc1ccccc1CCn1cnc2c3cc(C)ccc3n(C)c2c1=O,inactive: 21.2%
4,COc1ccc2c(c1)c(=O)oc1cc3occ(C(C)(C)C)c3cc12,inactive: 1.48%
5,CC(=O)O[C@]1(C(C)=O)CC[C@H]2[C@@H]3C=C(C)C4=CC(=O)CC[C@]4(C)[C@H]3CC[C@@]21C,inactive: 22.4%
6,CC(=O)/C=C/c1ccc(C)o1,inactive: 1.43%
7,C=CCOC(=O)C1=C(C)NC(=O)NC1/C=C/c1ccccc1OC (stereo not drawn),inactive: 4.04%
8,O=C(/C=C/c1ccc2c(c1)OCCCO2)c1ccc2ccccc2c1O,inactive: -2.27%
9,Nc1nnc(CSCc2ccc(Cl)cc2Cl)s1,inactive: 13.1%
10,Cc1[nH]c2ccccc2c1C(=O)C(=O)NCc1ccco1,inactive: 5.84%
11,Cc1ccc(S(=O)(=O)NC(C(=O)Oc2cc3oc(=O)cc(C)c3cc2Cl)C(C)C)cc1 (stereo not drawn),inactive: -8.73%
12,Cc1cnc(N)c2c(=O)oc3ccccc3c12,inactive: -7.04%
13,CCC(=O)Oc1ccc(C(=O)Nc2ccc([N+](=O)[O-])cc2)cc1,inactive: -1.57%
14,COCCN(CCOC)Cc1c(C)[nH]c2c(C)c(C)ccc2c1=O,inactive: 8.21%
15,CS(=O)(=O)c1cccc(C(=O)Oc2ccccc2)c1,inactive: 11.1%
16,CC(=O)OCC(=O)[C@@]12OC3(CCCC3)O[C@@H]1C[C@H]1[C@@H]3CCC4=CC(=O)C=C[C@]4(C)[C@@]3(F)[C@@H](O)C[C@@]12C,inactive: -4.08%
17,CCCC(=O)Nc1ccc(OCC(O)CNC(C)C)c(C(C)=O)c1 (stereo not drawn),inactive: 2.39%
18,CCn1c(C)cc2c(c1=O)C(c1ccccc1)C(C(=O)OC)=C(N)O2 (stereo not drawn),inactive: -22%
19,NC(=O)c1c(-c2ccccc2)oc2ccc(O)cc12,inactive: 15.6%
20,COc1ccc(C2C3CCCCC3(O)CCN2C(=O)c2cccs2)cc1 (stereo not drawn),inactive: 13.6%
21,O=c1c(-c2ccccc2)c(O)c2cccc3c2n1CCC3,inactive: -4.59%
22,COc1ccc(C2=NOC(COc3ccc4c(C)cc(=O)oc4c3)C2)c(OC)c1 (stereo not drawn),inactive: -0.922%
23,C#CCN1C(=O)C(O)(CC(=O)c2ccc(OC)c(OC)c2)c2ccccc21 (stereo not drawn),inactive: 2.67%
